Assay [1] deals with T1, BAFF-R-Fc (UniProt Q96RJ3).
T1 sequence (looked up): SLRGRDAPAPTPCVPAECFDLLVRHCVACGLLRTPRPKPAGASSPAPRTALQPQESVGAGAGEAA
In words: Biacore, CA8 chimera captured on protein A, Fc fusion injected. For orientation: In SPR one partner is held on a chip, and binding of the other changes the refractive index at the surface.

By UniProt entry, the sequences of proteins in these tests, tags left out. Residues count along the entry.
BCMA-Fc (Q02223, residues 1-54): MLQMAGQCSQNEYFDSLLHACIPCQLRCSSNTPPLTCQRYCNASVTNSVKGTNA
recombinant human BCMA (US Biological, B0410) (Q02223, residues 5-54): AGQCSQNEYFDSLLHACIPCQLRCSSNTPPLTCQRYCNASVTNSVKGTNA

Assay [2] deals with T2, TACI-Fc (UniProt O14836).
T2 sequence (looked up): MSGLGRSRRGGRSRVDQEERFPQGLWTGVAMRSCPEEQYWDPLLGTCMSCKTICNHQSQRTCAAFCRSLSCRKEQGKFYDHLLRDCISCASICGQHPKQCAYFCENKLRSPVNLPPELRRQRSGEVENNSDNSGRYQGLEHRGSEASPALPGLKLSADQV
Described as above.

Assay [3] addresses cyno BCMA on HEK293 cells (cyno). In words: FMAT, HEK293 cells transfected with cyno BCMA, anti-human IgG FMAT Blue detection.
Assay [4] addresses T2, TACI-Fc. Put plainly: Biacore, CA8 chimera captured on protein A, TACI-Fc injected.
In assay [5] the target is BCMA-Fc (UniProt Q02223). In words: Biacore, CA8 chimera captured on protein A, BCMA-Fc injected.
Assay [6] concerns the target cyno BCMA on HEK293 cells (cyno). Put plainly: FMAT, cyno BCMA transfected HEK293 cells.
In assay [7] the target is BCMA-Fc (UniProt Q02223). In words: Biacore, CA8 chimera captured on protein A, BCMA-Fc injected at 2.5 µg/ml.
Assay [8] concerns the target T1, BAFF-R-Fc. Put plainly: Biacore, CA8 chimera captured on protein A, BAFF-R-Fc injected.
The target in assay [9] is recombinant human BCMA (US Biological, B0410) (human) (UniProt Q02223). Put plainly: SPR Biacore T100, mAb captured on Protein A, 37C.
Assay [10] shares this target. Put plainly: SPR Biacore T100, mAb captured on Protein A, 25C and 37C.

Results are given in words; binding and its absence hold for the method and conditions named. Some results given as binding are weak or reduced against the parent protein; the word gives no strength. For some assays here: Sequences can lack the tags named with a protein.

B1: CA8 chimera (antibody, V domains shown)
VH: EVQLQQSGAVLARPGASVKMSCKGSGYTFTNYWMHWVKQRPGQGLEWIGATYRGHSDTYYNQKFKGKAKLTAVTSTSTAYMELSSLTNEDSAVYYCTRGAIYNGYDVLDNWGQGTLVTVSS
VL: DIQLTQTTSSLSASLGDRVTISCSASQDISNYLNWYQQKPDGTVELVIYYTSNLHSGVPSRFSGSGSGTDYSLTIGYLEPEDVATYYCQQYRKLPWTFGGGSKLEIKR
Regarding B1, the binding entry with BAFF-R-Fc [1] is on record as “no binding”; in the assay with TACI-Fc [2] it was “no binding”; in assay [3], “binds”; with TACI-Fc [4], “no binding (tested: 2.5µg/ml)”; with BCMA-Fc [5], “binds”; in [6], “binds”. Besides, the binding result in the assay with BCMA-Fc [7] is reported as “binds”; with BAFF-R-Fc [8] it was “no binding (tested: 2.5µg/ml)”.

B2: CA8 humanised J9M1 (antibody, human IgG1, kappa, V domains shown)
VH: QVQLVQSGAEVKKPGSSVKVSCKGSGYTFTNYWMHWVRQAPGQGLEWIGATYRGHSDTYYNQKFKGRATLTADTSTSTAYMELSSLRSEDTAVYYCTRGAIYDGYDVLDNWGQGTLVTVSS
VL: DIQMTQSPSSLSASVGDRVTITCSASQDISNYLNWYQQKPGKAPKLLIYYTSNLHSGVPSRFSGSGSGTDYTLTISSLQPEDFATYYCQQYRKLPWTFGQGTKLEIKR
For B2, the binding result in [9] is listed as “binds”.

B3: CA8 humanised J8M1 (antibody, human IgG1, kappa, V domains shown)
VH: QVQLVQSGAEVKKPGSSVKVSCKASGYTFTNYWMHWVRQAPGQGLEWMGATYRGHSDTYYNQKFKGRVTITADKSTSTAYMELSSLRSEDTAVYYCTRGAIYDGYDVLDNWGQGTLVTVSS
VL: DIQMTQSPSSLSASVGDRVTITCSASQDISNYLNWYQQKPGKAPKLLIYYTSNLHSGVPSRFSGSGSGTDYTLTISSLQPEDFATYYCQQYRKLPWTFGQGTKLEIKR
As for B3, in assay [9], the binding entry was “binds”.

B4: CA8 humanised J7M1 (antibody, human IgG1, kappa, V domains shown)
VH: QVQLVQSGAEVKKPGSSVKVSCKASGYTFTNYWMHWVRQAPGQGLEWMGATYRGHSDTYYNQKFKGRVTITADKSTSTAYMELSSLRSEDTAVYYCARGAIYDGYDVLDNWGQGTLVTVSS
VL: DIQMTQSPSSLSASVGDRVTITCSASQDISNYLNWYQQKPGKAPKLLIYYTSNLHSGVPSRFSGSGSGTDYTLTISSLQPEDFATYYCQQYRKLPWTFGQGTKLEIKR
As for B4, the binding result in assay [9] was “binds”.

B5: CA8 humanised J7M0 (antibody, human IgG1, kappa, V domains shown)
VH: QVQLVQSGAEVKKPGSSVKVSCKASGYTFTNYWMHWVRQAPGQGLEWMGATYRGHSDTYYNQKFKGRVTITADKSTSTAYMELSSLRSEDTAVYYCARGAIYDGYDVLDNWGQGTLVTVSS
VL: DIQMTQSPSSLSASVGDRVTITCSASQDISNYLNWYQQKPGKAPKLLIYYTSNLHSGVPSRFSGSGSGTDFTLTISSLQPEDFATYYCQQYRKLPWTFGQGTKLEIKR
B5: the binding entry in assay [9] is “binds”.

B6: CA8 humanised J7M2 (antibody, human IgG1, kappa, V domains shown)
VH: QVQLVQSGAEVKKPGSSVKVSCKASGYTFTNYWMHWVRQAPGQGLEWMGATYRGHSDTYYNQKFKGRVTITADKSTSTAYMELSSLRSEDTAVYYCARGAIYDGYDVLDNWGQGTLVTVSS
VL: DIQLTQSPSSLSASVGDRVTITCSASQDISNYLNWYQQKPGKAPELVIYYTSNLHSGVPSRFSGSGSGTDYTLTISSLQPEDFATYYCQQYRKLPWTFGQGTKLEIKR
As for B6, the binding entry in assay [9] was “binds”.

B7: CA8 humanised J8M2 (antibody, human IgG1, kappa, V domains shown)
VH: QVQLVQSGAEVKKPGSSVKVSCKASGYTFTNYWMHWVRQAPGQGLEWMGATYRGHSDTYYNQKFKGRVTITADKSTSTAYMELSSLRSEDTAVYYCTRGAIYDGYDVLDNWGQGTLVTVSS
VL: DIQLTQSPSSLSASVGDRVTITCSASQDISNYLNWYQQKPGKAPELVIYYTSNLHSGVPSRFSGSGSGTDYTLTISSLQPEDFATYYCQQYRKLPWTFGQGTKLEIKR
As for B7, the binding entry in assay [9] is listed as “binds”.

B8: CA8 humanised J9M0 (antibody, human IgG1, kappa, V domains shown)
VH: QVQLVQSGAEVKKPGSSVKVSCKGSGYTFTNYWMHWVRQAPGQGLEWIGATYRGHSDTYYNQKFKGRATLTADTSTSTAYMELSSLRSEDTAVYYCTRGAIYDGYDVLDNWGQGTLVTVSS
VL: DIQMTQSPSSLSASVGDRVTITCSASQDISNYLNWYQQKPGKAPKLLIYYTSNLHSGVPSRFSGSGSGTDFTLTISSLQPEDFATYYCQQYRKLPWTFGQGTKLEIKR
On to B8, for which the binding result in [9] and in [10] was “binds” throughout.

B9: CA8 humanised J8M0 (antibody, human IgG1, kappa, V domains shown)
VH: QVQLVQSGAEVKKPGSSVKVSCKASGYTFTNYWMHWVRQAPGQGLEWMGATYRGHSDTYYNQKFKGRVTITADKSTSTAYMELSSLRSEDTAVYYCTRGAIYDGYDVLDNWGQGTLVTVSS
VL: DIQMTQSPSSLSASVGDRVTITCSASQDISNYLNWYQQKPGKAPKLLIYYTSNLHSGVPSRFSGSGSGTDFTLTISSLQPEDFATYYCQQYRKLPWTFGQGTKLEIKR
Regarding B9, the binding entry in assay [9] is “binds”.
